Structures can show the parent of a compound that is named as a salt. The list shows a part of the results. The calls rarely recur for the same compound in another form.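 Kinases, fused to nanoluciferase, were expressed in K562 cells; luminescence was measured every 4 h from 2 to 18 h as percent of control (DMSO = 100%, positive control = 0%). A time point is decreased if signal falls significantly (2 sigma). Hits were called by the authors by a rule that is not shown; the count of time points alone does not decide it.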
Molecular target: CAMK2G (UniProt Q13555)
Test: kinase-Nluc reporter destabilization hit call (1 = scored as downregulated) (binary); higher = compound decreases kinase abundance
Conditions: K562; 2-18 h

Amino acid sequences for entries named in this document (tags omitted). A change or cut given only in a name is not applied to a line headed by its entry.
UniProt Q13555: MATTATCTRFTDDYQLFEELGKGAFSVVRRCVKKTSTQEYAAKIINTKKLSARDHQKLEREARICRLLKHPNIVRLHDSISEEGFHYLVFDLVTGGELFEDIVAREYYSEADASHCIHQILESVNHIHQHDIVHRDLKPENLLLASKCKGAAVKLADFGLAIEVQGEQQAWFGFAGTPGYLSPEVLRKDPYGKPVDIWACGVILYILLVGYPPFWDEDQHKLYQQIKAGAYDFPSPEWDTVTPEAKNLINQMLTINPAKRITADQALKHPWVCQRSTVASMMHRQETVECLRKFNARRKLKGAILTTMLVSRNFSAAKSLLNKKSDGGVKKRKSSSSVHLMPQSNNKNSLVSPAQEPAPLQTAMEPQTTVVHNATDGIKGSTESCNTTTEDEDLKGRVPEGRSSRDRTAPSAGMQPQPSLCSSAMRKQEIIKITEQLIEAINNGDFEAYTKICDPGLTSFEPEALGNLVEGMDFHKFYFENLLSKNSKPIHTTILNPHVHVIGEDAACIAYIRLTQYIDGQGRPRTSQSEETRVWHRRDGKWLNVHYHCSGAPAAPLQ

kinase-Nluc reporter destabilization hit call, inactive:
Cn1c(=O)c2c(nc(S(C)(=O)=O)n2C)n(CC#Cc2cccc(O)c2)c1=O (2.5 µM) 0
Cc1ccc(C)c(OCCn2cc(C(=O)O)c3ccccc32)c1 (10 µM) 0
C=CC(=O)Nc1ccc(C(=O)Nc2[nH]nc3c2CN(C(=O)N[C@H](CN(C)C)c2ccccc2)C3(C)C)cc1 (10 µM) 0
Nc1ncnc2c1nc(Br)n2[C@@H]1O[C@@H]2COP(=O)(O)O[C@H]2[C@H]1O [8-Bromo-cAMP sodium salt] (10 µM) 0
O=c1[nH]ccc2nc(-c3ccc(CN4CCC(c5nc(-c6ccccn6)n[nH]5)CC4)cc3)c(-c3ccccc3)cc12 (10 µM) 0
COc1ccc(Nc2ncc(C(F)(F)F)c(NC3CC3)n2)cc1OC (10 µM) 0
O=C1NC(=O)/C(=C\c2c[nH]c(=O)c(-c3ccc(N4CCNCC4)nc3)c2)S1 [Protein kinase inhibitors 1 hydrochloride] (10 µM) 0
CCN(CC)CCCC(C)Nc1nc(C)cc(Nc2ccc3nc(C)cc(N)c3c2)n1 (stereo not drawn) (10 µM) 0

Reference: the supplement of paper PMC12823440, “Inhibitors supercharge kinase turnover through native proteolytic circuits” (Nature, 2025)
